Measured values as given in the supplement of paper PMC10849652.
This is one part of the list.

Chains of the proteins cited; added tags and fusions are not shown. Lines headed by an entry give the natural chain unless they say otherwise; changes in a name come on top.
UniProt A2VDF0: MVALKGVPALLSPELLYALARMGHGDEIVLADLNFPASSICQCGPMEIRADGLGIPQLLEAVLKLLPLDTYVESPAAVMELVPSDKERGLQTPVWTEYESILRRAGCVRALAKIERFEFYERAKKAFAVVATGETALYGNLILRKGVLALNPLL
UniProt Q8IVH2: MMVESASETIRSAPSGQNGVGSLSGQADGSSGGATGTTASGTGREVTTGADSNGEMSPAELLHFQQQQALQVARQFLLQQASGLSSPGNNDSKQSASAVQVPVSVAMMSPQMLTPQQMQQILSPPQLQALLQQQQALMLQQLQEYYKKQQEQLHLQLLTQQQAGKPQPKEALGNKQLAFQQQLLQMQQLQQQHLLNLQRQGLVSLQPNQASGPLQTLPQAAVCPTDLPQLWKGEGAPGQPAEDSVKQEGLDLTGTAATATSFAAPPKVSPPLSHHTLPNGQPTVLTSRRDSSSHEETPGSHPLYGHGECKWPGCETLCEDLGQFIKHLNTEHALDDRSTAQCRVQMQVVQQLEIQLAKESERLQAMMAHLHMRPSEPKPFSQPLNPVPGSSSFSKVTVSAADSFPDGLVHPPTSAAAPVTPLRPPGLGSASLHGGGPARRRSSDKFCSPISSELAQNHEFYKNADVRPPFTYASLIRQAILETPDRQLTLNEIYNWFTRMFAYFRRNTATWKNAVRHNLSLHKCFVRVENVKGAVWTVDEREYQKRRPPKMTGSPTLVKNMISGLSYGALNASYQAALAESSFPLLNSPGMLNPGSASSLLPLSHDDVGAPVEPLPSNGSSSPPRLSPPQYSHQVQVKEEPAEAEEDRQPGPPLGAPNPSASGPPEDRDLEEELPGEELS
UniProt Q8NCW6: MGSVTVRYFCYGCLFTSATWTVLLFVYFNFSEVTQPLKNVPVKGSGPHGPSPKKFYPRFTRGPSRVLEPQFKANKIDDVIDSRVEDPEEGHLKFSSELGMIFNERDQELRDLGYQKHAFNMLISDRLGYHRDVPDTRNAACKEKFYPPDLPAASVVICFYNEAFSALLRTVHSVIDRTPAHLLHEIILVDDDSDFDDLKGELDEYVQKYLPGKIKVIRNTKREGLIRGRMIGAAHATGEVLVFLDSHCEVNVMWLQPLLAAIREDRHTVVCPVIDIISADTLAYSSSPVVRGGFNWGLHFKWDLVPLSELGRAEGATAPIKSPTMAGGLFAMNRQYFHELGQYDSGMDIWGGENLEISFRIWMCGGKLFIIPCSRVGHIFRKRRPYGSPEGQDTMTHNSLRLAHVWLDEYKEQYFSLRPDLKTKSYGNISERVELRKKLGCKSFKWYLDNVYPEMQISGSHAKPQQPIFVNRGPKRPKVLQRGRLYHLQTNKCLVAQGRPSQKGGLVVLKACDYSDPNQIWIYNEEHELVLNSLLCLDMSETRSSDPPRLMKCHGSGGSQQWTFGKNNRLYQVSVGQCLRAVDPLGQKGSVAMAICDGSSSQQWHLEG
UniProt Q9NWZ8: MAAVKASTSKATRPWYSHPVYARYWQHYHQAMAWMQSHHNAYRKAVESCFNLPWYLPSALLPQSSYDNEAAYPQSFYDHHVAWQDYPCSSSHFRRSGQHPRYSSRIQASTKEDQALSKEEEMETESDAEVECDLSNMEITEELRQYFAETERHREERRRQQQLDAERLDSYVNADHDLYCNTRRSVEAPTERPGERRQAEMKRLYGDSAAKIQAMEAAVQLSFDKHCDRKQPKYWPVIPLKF
UniProt P02774: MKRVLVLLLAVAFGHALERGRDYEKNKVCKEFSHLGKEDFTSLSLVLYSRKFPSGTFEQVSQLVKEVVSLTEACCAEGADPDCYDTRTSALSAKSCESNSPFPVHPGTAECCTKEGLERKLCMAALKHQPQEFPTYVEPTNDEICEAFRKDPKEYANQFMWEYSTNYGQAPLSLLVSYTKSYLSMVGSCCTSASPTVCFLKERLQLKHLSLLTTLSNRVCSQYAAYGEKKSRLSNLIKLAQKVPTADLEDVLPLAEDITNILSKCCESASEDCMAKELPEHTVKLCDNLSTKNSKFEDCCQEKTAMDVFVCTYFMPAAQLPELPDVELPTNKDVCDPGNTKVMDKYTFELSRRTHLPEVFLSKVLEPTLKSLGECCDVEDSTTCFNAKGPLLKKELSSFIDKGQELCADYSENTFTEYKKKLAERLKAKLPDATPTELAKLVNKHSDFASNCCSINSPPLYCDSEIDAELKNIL
UniProt Q8NCL4: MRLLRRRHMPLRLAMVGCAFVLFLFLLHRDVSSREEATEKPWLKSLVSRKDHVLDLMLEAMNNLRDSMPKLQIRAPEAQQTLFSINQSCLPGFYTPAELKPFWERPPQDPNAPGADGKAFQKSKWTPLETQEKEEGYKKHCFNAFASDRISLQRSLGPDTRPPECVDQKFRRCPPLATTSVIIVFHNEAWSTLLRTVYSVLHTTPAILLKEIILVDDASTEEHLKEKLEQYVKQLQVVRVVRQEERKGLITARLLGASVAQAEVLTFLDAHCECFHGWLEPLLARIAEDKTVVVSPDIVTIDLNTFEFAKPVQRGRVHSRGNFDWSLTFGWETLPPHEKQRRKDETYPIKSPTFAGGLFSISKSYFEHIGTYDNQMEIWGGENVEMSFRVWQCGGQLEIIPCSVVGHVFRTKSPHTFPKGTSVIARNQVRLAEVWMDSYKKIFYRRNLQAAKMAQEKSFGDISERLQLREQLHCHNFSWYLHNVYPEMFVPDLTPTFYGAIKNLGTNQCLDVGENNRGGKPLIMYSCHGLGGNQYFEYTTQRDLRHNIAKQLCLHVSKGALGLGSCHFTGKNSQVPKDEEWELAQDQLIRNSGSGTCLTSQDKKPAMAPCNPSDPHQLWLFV
UniProt Q9UET6: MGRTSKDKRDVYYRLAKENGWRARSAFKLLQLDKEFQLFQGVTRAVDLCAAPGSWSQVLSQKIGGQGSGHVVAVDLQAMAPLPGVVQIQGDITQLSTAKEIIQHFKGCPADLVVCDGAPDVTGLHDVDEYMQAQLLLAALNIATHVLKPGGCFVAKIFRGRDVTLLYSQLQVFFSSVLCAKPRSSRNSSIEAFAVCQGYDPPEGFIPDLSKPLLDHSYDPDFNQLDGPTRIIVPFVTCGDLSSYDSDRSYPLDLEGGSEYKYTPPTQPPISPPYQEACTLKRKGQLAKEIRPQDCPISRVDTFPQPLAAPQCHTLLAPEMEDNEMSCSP
UniProt Q86SR1: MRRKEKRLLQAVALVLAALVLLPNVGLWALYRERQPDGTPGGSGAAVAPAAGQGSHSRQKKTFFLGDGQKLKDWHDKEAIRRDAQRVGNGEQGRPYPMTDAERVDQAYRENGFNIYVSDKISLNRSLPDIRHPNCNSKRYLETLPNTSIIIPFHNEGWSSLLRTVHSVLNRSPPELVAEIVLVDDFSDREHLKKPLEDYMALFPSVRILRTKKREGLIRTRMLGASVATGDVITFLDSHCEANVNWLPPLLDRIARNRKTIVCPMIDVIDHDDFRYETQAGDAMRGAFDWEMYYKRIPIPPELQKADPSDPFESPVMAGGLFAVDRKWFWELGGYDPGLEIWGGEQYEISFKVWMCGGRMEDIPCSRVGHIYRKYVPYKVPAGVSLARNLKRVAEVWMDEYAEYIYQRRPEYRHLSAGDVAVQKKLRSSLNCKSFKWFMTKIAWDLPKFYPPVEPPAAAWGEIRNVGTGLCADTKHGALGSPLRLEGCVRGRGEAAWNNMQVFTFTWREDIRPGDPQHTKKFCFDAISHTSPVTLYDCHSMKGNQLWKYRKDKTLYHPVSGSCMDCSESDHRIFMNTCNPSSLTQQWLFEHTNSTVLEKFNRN
UniProt Q8WTR4: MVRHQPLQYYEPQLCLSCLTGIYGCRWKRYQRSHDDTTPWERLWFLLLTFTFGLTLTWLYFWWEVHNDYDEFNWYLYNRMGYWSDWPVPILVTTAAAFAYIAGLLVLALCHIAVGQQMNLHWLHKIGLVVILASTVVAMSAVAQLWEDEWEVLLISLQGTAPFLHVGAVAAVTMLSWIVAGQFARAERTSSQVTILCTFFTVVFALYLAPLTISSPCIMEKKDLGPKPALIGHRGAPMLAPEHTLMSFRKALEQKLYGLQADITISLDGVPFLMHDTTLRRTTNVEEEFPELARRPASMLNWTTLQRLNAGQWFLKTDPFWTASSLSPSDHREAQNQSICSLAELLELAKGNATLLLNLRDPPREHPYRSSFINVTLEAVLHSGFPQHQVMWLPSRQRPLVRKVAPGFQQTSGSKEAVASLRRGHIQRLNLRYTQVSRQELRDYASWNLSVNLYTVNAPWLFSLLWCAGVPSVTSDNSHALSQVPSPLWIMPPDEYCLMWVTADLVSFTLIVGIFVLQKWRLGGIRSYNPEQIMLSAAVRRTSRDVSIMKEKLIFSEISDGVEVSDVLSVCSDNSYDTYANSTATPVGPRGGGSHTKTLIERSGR

What was measured:
Assay in all cases: log2 fold change, soluble protein after heating vs DMSO (PISA); higher = thermal stabilisation; K562 lysate, 10 uM; active = over 0.2 and 3.5 SD of the protein, either way, in both replicates (recomputed)
vemurafenib = compound: CCCS(=O)(=O)Nc1ccc(F)c(C(=O)c2c[nH]c3ncc(-c4ccc(Cl)cc4)cc23)c1F [vemurafenib]
Procedure, shortened: (§1)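 Following dounce homogenisation of K562 pellets in PBS pH 7.4 with 1 mM MgCl2, crude extract at 1 mg/mL protein was incubated for 30 min with 10 μM compound. Aliquots were then heated for 3 min over 48°C-58°C and pooled, NP-40 was added to 0.5% at 4°C, and soluble protein was recovered as the supernatant at 21,000xg for 90 min. Channel-sum-equalised TMTpro 16plex LC-MS/MS quantified this protein. Each value, from duplicates, is a log-two fold change in thermal stability relative to solvent controls.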

[1] = compound: CCCS(=O)(=O)Nc1ccc(F)c(C(=O)c2c[nH]c3ncc(Cl)cc23)c1F
Procedure, shortened: as §1

[2] = compound: CC[C@@H]1C(=O)N(C)c2cnc(Nc3ccc(C(=O)NC4CCN(C)CC4)cc3OC)nc2N1C1CCCC1
Procedure, shortened: as §1

volasertib = compound: CC[C@@H]1C(=O)N(C)c2cnc(Nc3ccc(C(=O)N[C@H]4CC[C@H](N5CCN(CC6CC6)CC5)CC4)cc3OC)nc2N1C(C)C [volasertib]
Procedure, shortened: as §1

[3] = compound: CCn1c(C(=O)N(C2CC2)C2CC2)cc2c3c(ncn3C)c(Nc3cc(C)n(C)n3)nc21
Procedure, shortened: as §1

[4] = compound: CCn1cc(-c2ccnc3[nH]c(-c4cccc(CN(C)C)c4)cc23)c(-c2ccc(NC(=O)N(C)C)cc2)n1
Procedure, shortened: as §1

[5] = compound: CN1CCC(CNc2ccc3ncc(-c4cccc(OC(F)(F)F)c4)n3n2)CC1
Procedure, shortened: as §1

saracatinib = compound: CN1CCN(CCOc2cc(OC3CCOCC3)c3c(Nc4c(Cl)ccc5c4OCO5)ncnc3c2)CC1 [saracatinib]
Procedure, shortened: as §1

barasertib = compound: CCN(CCCOc1ccc2c(Nc3cc(CC(=O)Nc4cccc(F)c4)[nH]n3)ncnc2c1)CCOP(=O)(O)O [barasertib]
Procedure, shortened: as §1

sotrastaurin = compound: CN1CCN(c2nc(C3=C(c4c[nH]c5ccccc45)C(=O)NC3=O)c3ccccc3n2)CC1 [sotrastaurin]
Procedure, shortened: as §1

Measured: log2 fold change

FUOM (UniProt A2VDF0)
inactive: vemurafenib 0.091 | [1] 0.001 | [2] 0.179 | volasertib 0.003 | [3] -0.027 | [4] 0.06 | [5] 0.054 | saracatinib 0.151

FOXP4 (UniProt Q8IVH2)
inactive: vemurafenib 0.001 | barasertib -0.161 | [2] 0 | [3] 0.005 | [4] -0.07 | [5] 0.143 | saracatinib -0.083

GALNT11 (UniProt Q8NCW6)
inactive: vemurafenib 0.009 | [1] 0.097 | [2] 0.035 | volasertib -0.055 | [3] 0.063 | [4] -0.244 | [5] 0.078 | saracatinib 0.071 | sotrastaurin -0.019

GEMIN8 (UniProt Q9NWZ8)
inactive: vemurafenib -0.033 | [1] 0.143 | barasertib 0.002 | [2] 0.27 | volasertib -0.038 | [3] -0.089 | [4] 0.081 | [5] -0.117 | sotrastaurin -0.001

GC isoform 3 (UniProt P02774)
inactive: vemurafenib -0.008 | [2] 0.022 | [3] -0.27 | [4] 0.146 | [5] -0.12 | saracatinib -0.02 | sotrastaurin 0.043

GALNT7 (UniProt H0YAH3)
inactive: vemurafenib 0.076 | [2] -0.058 | [4] -0.016 | [5] -0.086

FUNDC2 (UniProt H7C0K8)
inactive: vemurafenib 0.116 | [1] 0.06 | barasertib 0.129 | volasertib 0.073

GALNT6 (UniProt Q8NCL4)
inactive: vemurafenib 0.154 | [1] -0.04 | barasertib -0.044 | [2] -0.027 | volasertib 0.012 | [4] -0.017 | [5] 0.16 | saracatinib 0.148 | sotrastaurin 0.022

FTSJ1 isoform 2 (UniProt Q9UET6)
inactive: vemurafenib -0.164 | [1] 0.021 | [2] -0.024 | volasertib 0.013 | [4] -0.019 | [5] 0.047

GALNT10 (UniProt Q86SR1)
inactive: vemurafenib -0.132 | [1] 0.092 | barasertib -0.112 | [2] 0.173 | volasertib -0.005 | saracatinib 0.09

GDPD5 (UniProt Q8WTR4)
inactive: vemurafenib 0.252 | sotrastaurin -0.05
